Measurements as given in the supplement of paper PMC12873370.
Some of the results follow. Repeats are few or missing, and single values can be far off.

Tests used:
[1] = system: MEPP (mouse ovarian epithelium Trp53/Pten KO); assay: cell viability relative to untreated (fraction); higher = less growth inhibition; conditions: 5 µM; 3 days
[2] = system: PREPP (mouse prostate epithelium Trp53/Pten KO); assay: as above; conditions: 5 µM; 3 days

| SMILES | cell viability [1] | cell viability [2] |
| --- | --- | --- |
| CCS(=O)(=O)N1CCN(c2ccc(Nc3ncc(C(N)=O)c(NC4CC4)n3)cc2)CC1 | 0.912 | 0.694 |
| O=c1c(-n2ccnn2)c[nH]n1-c1cc(N2CCOCC2)ncn1 | 0.927 | 0.933 |
| CCN(c1cc(-c2ccc(CN3CCOCC3)cc2)cc(C(=O)NCc2c(C)cc(C)[nH]c2=O)c1C)C1CCOCC1 | 0.902 | 0.925 |
| CN(C)CCCNC(=O)c1ccc(-c2cc(O)c3ncccc3c2)cc1 | 0.944 | 0.807 |
| COc1cc2c(NC3CCN(C)CC3)nc(N3CCCN(C)CC3)nc2cc1OCCCN(C)C | 0.78 | 0.849 |
| O=C(Nc1c[nH]nc1-c1nc2ccc(CN3CCOCC3)cc2[nH]1)NC1CC1 | 0.667 | 0.804 |
| CC(C)Oc1ccc(-c2c[nH]cc2CN(C)CCN)cc1 | 1.03 | 1.02 |
| CCc1cccc(CC)c1NC(=O)N1Cc2[nH]nc(NC(=O)c3ccc(N4CCN(C)CC4)cc3)c2C1 | 0.938 | 0.729 |
| O=C(O)c1ccc(O)c2ncccc12 | 0.979 | 1.02 |
| c1nc2c(NC3CCCCC3)nc(Nc3ccc(N4CCOCC4)cc3)nc2[nH]1 | 0.428 | 0.605 |
| CN1CCC(CNc2ccc3ncc(-c4cccc(OC(F)(F)F)c4)n3n2)CC1 | 0.649 | 0.623 |
| Cc1nc(-c2cccnc2)sc1C(=O)Nc1ccccc1-c1cn2c(CN3CCOCC3)csc2n1 | 1.05 | 0.796 |
| O=C(Nc1ccc(CN2CCOCC2)cc1)c1ccc(-c2cccc(Cl)c2)o1 | 0.962 | 1 |
| COc1cc2c(cc1-c1c(C)noc1C)ncc1[nH]c(=O)n([C@H](C)c3ccccn3)c12 | 0.859 | 0.54 |
| COc1cc2c(Nc3ccc(NC(=O)c4ccccc4)cc3)ncnc2cc1OCCCN1CCOCC1 | 0.887 | 0.722 |
| Cn1cc(CNCC2CCN(c3ncc(C(=O)NO)cn3)CC2)c2ccccc21 | 0.509 | 0.751 |
| N#C/C(=C\c1ccc(O)c(O)c1)C(=O)NCc1ccccc1 | 0.865 | 0.828 |
| CCN(CC)Cc1cc(Nc2ccnc3cc(Cl)ccc23)ccc1O | 0.925 | 0.885 |
| O=C(c1ccc(/C=C/c2n[nH]c3ccccc23)cc1)N1CCNCC1 | 0.84 | 0.586 |
| CO[C@@H](C(=O)N1Cc2[nH]nc(NC(=O)c3ccc(N4CCN(C)CC4)cc3)c2C1)c1ccccc1 | 0.798 | 0.796 |
| CCCCNNC(=O)c1ccc(Br)cc1 | 0.974 | 0.714 |
| Nc1ccccc1NC(=O)c1ccc(CNC(=O)OCc2cccnc2)cc1 | 0.692 | 0.62 |

Pulled one by one from the list above:

| SMILES | cell viability [1] | cell viability [2] |
| --- | --- | --- |
| N#C/C(=C\c1ccc(O)c(O)c1)C(=O)NCc1ccccc1 | 0.865 | 0.828 |
| Cc1nc(-c2cccnc2)sc1C(=O)Nc1ccccc1-c1cn2c(CN3CCOCC3)csc2n1 | 1.05 | 0.796 |

Carrying on.

| SMILES | cell viability [1] | cell viability [2] |
| --- | --- | --- |
| CN(C)Cc1c(C(=O)NCCOc2ccc(C(=O)NO)cc2)oc2ccccc12 | 0.531 | 0.627 |
| COc1cc(OC)c2c(=O)[nH]c(-c3cc(C)c(OCCO)c(C)c3)nc2c1 | 0.878 | 0.706 |
| O=C1c2c(O)ccc(O)c2C(=O)c2c(NCCNCCO)ccc(NCCNCCO)c21 | 0.299 | 0.373 |
| CCC1C/C(=C\c2cccnc2)C(=O)/C(=C/c2cccnc2)C1 (stereo unspecified) | 0.991 | 0.769 |
| CN(C)CCCn1cc(C2=C(c3c[nH]c4ccccc34)C(=O)NC2=O)c2ccccc21 | 0.808 | 0.783 |
| Cc1cc(C)cc(C(=O)NOCCCCCC(=O)NO)c1 | 0.539 | 0.566 |
| CC[C@H](C)n1cc(C)c2c(C(=O)NCc3c(C)cc(C)[nH]c3=O)cc(-c3ccc(N4CCNCC4)nc3)cc21 | 0.895 | 0.79 |
| O=C(O)c1ccc(Nc2ncc3c(n2)-c2ccc(Cl)cc2C(c2c(F)cccc2F)=NC3)cc1 | 0.686 | 0.631 |
| Cc1cc(/N=N/c2ccc(S(=O)(=O)Nc3ccccn3)cc2)c(N)cc1O | 1.08 | 0.672 |
| N.N.O=C([O-])C[O-].[Pt+2] | 0.861 | 0.767 |
| C#Cc1cccc(Nc2ncnc3cc(OC)c(OCCCCCCC(=O)NO)cc23)c1 | 0.444 | 0.707 |
| CCCCN(Cc1ccc(C(=O)NO)cc1)C(=O)Nc1ccccc1 | 0.869 | 0.8 |
| CCCCCCCc1ccc(CCc2cccc(O)c2C(=O)O)cc1 | 0.994 | 1.02 |
| Nc1nc(Nc2ccc(S(N)(=O)=O)cc2)nn1C(=O)c1c(F)cccc1F | 0.749 | 0.7 |
| Cn1cc(C2=C(c3cn(CCCSC(=N)N)c4ccccc34)C(=O)NC2=O)c2ccccc21 | 0.435 | 0.772 |
| COc1cc(-c2cn(C)c(=O)c3cnccc23)cc(OC)c1CN(C)C | 0.882 | 1.01 |
| C[C@H](NC(=O)/C(C#N)=C/c1cccc(Br)n1)c1ccccc1 | 0.896 | 0.874 |
| COc1ccc(CCc2nc3cc(-c4c(C)noc4C)ccc3n2C[C@H](C)N2CCOCC2)cc1Cl | 0.745 | 0.789 |
| CCS(=O)(=O)c1cccc(-c2cc(C(=O)NC3CCN(C)CC3)c(C)c3[nH]c4ncc(C)cc4c23)c1 | 0.863 | 0.824 |
| CC(=O)Nc1ccc(NC(=S)NC(=O)c2ccc(C(C)(C)C)cc2)cc1 | 0.421 | 0.603 |
| CN1C/C=C/CCOc2cccc(c2)-c2ccnc(n2)Nc2cccc(c2)C1 | 0.381 | 0.707 |
